Assay results published in the supplement of paper PMC7238544.
Structures can show the parent of a compound that is named as a salt. ± gives the standard deviation of the averaged measurements. Some of the results follow. The data scatter; read single values as rough.

What was measured:
hAMSC donor 1 [1] = test: Hoechst total cell count ratio vs vehicle control; higher = more cells (less toxicity)
hAMSC donor 2 [2] = test: as above
hAMSC donor 1 [3] = test: transgenic luciferase activity (RLU/mg protein) fold change vs vehicle control (ratio); higher = more transgene expression
hAMSC donor 2 [4] = test: as above
hAMSC donor 1 [5] = test: transfection efficiency (EGFP+ cells / Hoechst count) fold change vs vehicle control (ratio); hAMSC are human adipose-derived mesenchymal stem cells given an EGFP-luciferase plasmid by lipofection; higher = enhanced transfection
hAMSC donor 2 [6] = test: as above
[7] = priming compound concentration 0.2 µM
[8] = priming compound concentration 1.7 µM
[9] = priming compound concentration 13 µM

| Structure (SMILES) | Hoechst total cell count ratio (hAMSC donor 1 [1]; [7]) | Hoechst total cell count ratio (hAMSC donor 1 [1]; [8]) | Hoechst total cell count ratio (hAMSC donor 1 [1]; [9]) | Hoechst total cell count ratio (hAMSC donor 2 [2]; [7]) | Hoechst total cell count ratio (hAMSC donor 2 [2]; [8]) | Hoechst total cell count ratio (hAMSC donor 2 [2]; [9]) | transgenic luciferase activity (hAMSC donor 1 [3]; [7]) | transgenic luciferase activity (hAMSC donor 2 [4]; [7]) | transfection efficiency (hAMSC donor 1 [5]; [7]) | transfection efficiency (hAMSC donor 1 [5]; [8]) | transfection efficiency (hAMSC donor 1 [5]; [9]) | transfection efficiency (hAMSC donor 2 [6]; [7]) | transfection efficiency (hAMSC donor 2 [6]; [8]) | transfection efficiency (hAMSC donor 2 [6]; [9]) | transgenic luciferase activity (hAMSC donor 2 [4]; [8]) | transgenic luciferase activity (hAMSC donor 1 [3]; [8]) | transgenic luciferase activity (hAMSC donor 1 [3]; [9]) | transgenic luciferase activity (hAMSC donor 2 [4]; [9]) |
| --- | --- | --- | --- | --- | --- | --- | --- | --- | --- | --- | --- | --- | --- | --- | --- | --- | --- | --- |
| CCCc1nc(C(C)(C)O)c(C(=O)OCc2oc(=O)oc2C)n1Cc1ccc(-c2ccccc2-c2nnn[nH]2)cc1 [Olmesartan medoxomil] | 1.36 ± 0.043 | 1.45 ± 0.098 | 1.44 ± 0.098 | 1.12 ± 0.31 | 1.27 ± 0.046 | 1.49 ± 0.22 | 1.4 ± 0.29 | 1.01 ± 0.23 | 0.715 ± 0.08 | 0.838 ± 0.44 | 1.86 ± 0.49 | 1.14 ± 0.32 | 0.853 ± 0.076 | 0.671 ± 0.11 | – | – | – | – |
| CC(N/C(=N\C#N)Nc1ccncc1)C(C)(C)C (stereo not drawn) [Pinacidil monohydrate] | 1.16 ± 0.088 | 1.09 ± 0.099 | 1.37 ± 0.13 | 1.27 ± 0.049 | 1.45 ± 0.047 | 1.09 ± 0.23 | 0.813 ± 0.79 | – | 0.937 ± 0.1 | 1.33 ± 0.71 | 0.652 ± 0.22 | 1.07 ± 0.058 | 0.879 ± 0.062 | 0.834 ± 0.078 | 0.865 ± 0.27 | – | – | – |
| Clc1ccc(COC(Cn2ccnc2)c2ccc(Cl)cc2Cl)cc1 (stereo not drawn) [Econazole nitrate] | 1.66 ± 0.13 | 1.38 ± 0.18 | 1.4 ± 0.046 | 1.44 ± 0.39 | 1.33 ± 0.15 | 1.46 ± 0.085 | – | – | 1.2 ± 0.28 | 0.746 ± 0.094 | 0.967 ± 0.25 | 0.789 ± 0.16 | 0.691 ± 0.1 | 0.759 ± 0.044 | – | 0.758 ± 0.29 | – | – |
| C[C@@H](c1ncncc1F)[C@](O)(Cn1cncn1)c1ccc(F)cc1F [Voriconazole] | 1.23 ± 0.27 | 1.15 ± 0.19 | 1.25 ± 0.084 | 1.22 ± 0.32 | 1.14 ± 0.21 | 1.15 ± 0.12 | – | – | 0.871 ± 0.11 | 1.26 ± 0.16 | 0.867 ± 0.051 | 1.21 ± 0.21 | 1.46 ± 0.1 | 1.14 ± 0.057 | – | – | 0.738 ± 0.18 | – |
| C=CC1=C(C(=O)O)N2C(=O)[C@@H](NC(=O)/C(=N\OCC(=O)O)c3csc(N)n3)[C@H]2SC1 [Cefixime trihydrate] | 1.09 ± 0.11 | 1.2 ± 0.13 | 0.777 ± 0.28 | 1.23 ± 0.28 | 1.15 ± 0.22 | 0.277 ± 0.037 | 0.951 ± 0.35 | – | 0.982 ± 0.035 | 0.968 ± 0.17 | 1.88 ± 0.64 | 1.15 ± 0.42 | 1.14 ± 0.28 | 1.49 ± 0.19 | 0.752 ± 0.053 | – | – | – |
| OCc1cccnc1 [3-Pyridinemethanol] | 1.1 ± 0.017 | 0.992 ± 0.14 | 1.08 ± 0.2 | 1.14 ± 0.24 | 1.61 ± 0.036 | 0.951 ± 0.2 | 0.617 ± 0.29 | – | 1.08 ± 0.25 | 1.31 ± 0.64 | 1.13 ± 0.071 | 1.06 ± 0.29 | 0.903 ± 0.24 | 1.11 ± 0.28 | 0.316 ± 0.05 | – | – | – |
| CN(C)[C@@H]1C(O)=C(C(N)=O)C(=O)[C@@]2(O)C(O)=C3C(=O)c4c(O)cccc4[C@@](C)(O)[C@H]3C[C@@H]12 [Tetracycline] | 1.06 ± 0.076 | 1.12 ± 0.098 | 1.02 ± 0.09 | 0.976 ± 0.32 | 1.07 ± 0.09 | 0.73 ± 0.09 | 0.65 ± 0.14 | – | 1.03 ± 0.17 | 1.05 ± 0.062 | 1.18 ± 0.12 | 1.49 ± 0.12 | 0.88 ± 0.084 | 0.818 ± 0.021 | 0.623 ± 0.11 | – | – | – |
| CC(C)/N=c1\cc2n(-c3ccc(Cl)cc3)c3ccccc3nc-2cc1Nc1ccc(Cl)cc1 [Clofazimine] | 1.01 ± 0.1 | 0.999 ± 0.031 | 1.07 ± 0.062 | 0.989 ± 0.12 | 1.03 ± 0.066 | 1 ± 0.044 | 0.812 ± 0.22 | – | 1.11 ± 0.13 | 0.981 ± 0.16 | 0.748 ± 0.1 | 1.16 ± 0.2 | 0.961 ± 0.15 | 1.04 ± 0.2 | – | – | – | – |
| CC(=O)[C@]1(O)Cc2c(O)c3c(c(O)c2[C@@H](O[C@H]2C[C@H](N)[C@H](O)[C@H](C)O2)C1)C(=O)c1ccccc1C3=O [Idarubicin hydrochloride] | 0.751 ± 0.12 | 0.213 ± 0.13 | 0.0457 ± 0.034 | 0.441 ± 0.11 | 0.149 ± 0.0056 | 0.0997 ± 0.019 | 0.38 ± 0.36 | – | 2.62 ± 0.57 | – | – | 1.75 ± 0.34 | 2.84 ± 0.64 | – | – | – | – | 0.0018 ± 0.0014 |
| CCc1c2c(nc3ccc(OC(=O)N4CCC(N5CCCCC5)CC4)cc13)-c1cc3c(c(=O)n1C2)COC(=O)[C@]3(O)CC [Irinotecan hydrochloride] | 1.1 ± 0.072 | 0.996 ± 0.14 | 0.862 ± 0.13 | 1.31 ± 0.34 | 0.916 ± 0.059 | 0.292 ± 0.004 | – | – | 1.33 ± 0.23 | 2.28 ± 0.26 | – | 0.942 ± 0.23 | 1.66 ± 0.24 | – | – | 0.923 ± 0.2 | – | 1.45 ± 0.15 |
| c1cnc(N2CCN(Cc3ccc4c(c3)OCO4)CC2)nc1 [Piribedil hydrochloride] | 1.01 ± 0.2 | 1.08 ± 0.13 | 1.23 ± 0.037 | 1.36 ± 0.32 | 1.5 ± 0.25 | 1.07 ± 0.094 | – | – | 1.28 ± 0.4 | 1.5 ± 0.17 | 1.15 ± 0.51 | 0.921 ± 0.029 | 1.11 ± 0.16 | 1.3 ± 0.23 | – | 0.866 ± 0.54 | – | 0.952 ± 0.1 |
| CSc1ccc2c(c1)N(CCC1CCCCN1C)c1ccccc1S2 (stereo not drawn) [Thioridazine hydrochloride] | 1.26 ± 0.16 | 1.23 ± 0.17 | 1.14 ± 0.084 | 0.966 ± 0.61 | 1.11 ± 0.022 | 0.575 ± 0.14 | – | – | 1.36 ± 0.2 | 1.11 ± 0.29 | 0.934 ± 0.18 | 1.22 ± 0.53 | 1.28 ± 0.15 | 1.09 ± 0.2 | – | 1.38 ± 0.43 | – | – |
| Cc1nc2n(c(=O)c1CCN1CCC(c3noc4cc(F)ccc34)CC1)CCCC2 [Risperidone] | 1.26 ± 0.14 | 1.14 ± 0.028 | 1.28 ± 0.089 | 1.1 ± 0.29 | 1.11 ± 0.19 | 1.32 ± 0.24 | – | – | 1.19 ± 0.33 | 1.36 ± 0.2 | 0.766 ± 0.37 | 1.3 ± 0.15 | 1.22 ± 0.27 | 0.894 ± 0.11 | – | – | 1.52 ± 1.6 | – |
| CC[N+](C)(C)c1cccc(O)c1 [Edrophonium chloride] | 1.1 ± 0.068 | 1.11 ± 0.14 | 1.14 ± 0.13 | 1.25 ± 0.14 | 1.35 ± 0.047 | 0.901 ± 0.16 | 1.25 ± 0.71 | – | 1.06 ± 0.26 | 1.13 ± 0.26 | 1.03 ± 0.15 | 1.16 ± 0.13 | 1.16 ± 0.077 | 0.927 ± 0.13 | 0.678 ± 0.018 | – | – | – |
| CC1(C)C[C@@H]1C(=O)N/C(=C\CCCCSC[C@H](N)C(=O)O)C(=O)O [Cilastatin sodium] | 1.26 ± 0.086 | 1.33 ± 0.035 | 1.16 ± 0.074 | 0.922 ± 0.23 | 1.01 ± 0.067 | 0.83 ± 0.13 | 1.12 ± 0.048 | – | 0.86 ± 0.26 | 0.914 ± 0.24 | 0.99 ± 0.23 | 0.922 ± 0.085 | 1.02 ± 0.17 | 1.16 ± 0.073 | – | – | – | – |
| CC(C)(S)C(N)C(=O)O (racemic) [DL-Penicillamine] | 1.2 ± 0.11 | 1.27 ± 0.17 | 1.3 ± 0.12 | 1.01 ± 0.1 | 1.24 ± 0.023 | 1.36 ± 0.092 | 2.43 ± 1.1 | 0.872 ± 0.33 | 0.602 ± 0.14 | 1.17 ± 0.34 | 1.21 ± 0.3 | 1.19 ± 0.13 | 0.83 ± 0.083 | 0.793 ± 0.03 | – | – | – | – |

Whole records from above. Order of values: Hoechst total cell count ratio (hAMSC donor 1 [1]; [7]) | Hoechst total cell count ratio (hAMSC donor 1 [1]; [8]) | Hoechst total cell count ratio (hAMSC donor 1 [1]; [9]) | Hoechst total cell count ratio (hAMSC donor 2 [2]; [7]) | Hoechst total cell count ratio (hAMSC donor 2 [2]; [8]) | Hoechst total cell count ratio (hAMSC donor 2 [2]; [9]) | transgenic luciferase activity (hAMSC donor 1 [3]; [7]) | transgenic luciferase activity (hAMSC donor 2 [4]; [7]) | transfection efficiency (hAMSC donor 1 [5]; [7]) | transfection efficiency (hAMSC donor 1 [5]; [8]) | transfection efficiency (hAMSC donor 1 [5]; [9]) | transfection efficiency (hAMSC donor 2 [6]; [7]) | transfection efficiency (hAMSC donor 2 [6]; [8]) | transfection efficiency (hAMSC donor 2 [6]; [9]) | transgenic luciferase activity (hAMSC donor 2 [4]; [8]) | transgenic luciferase activity (hAMSC donor 1 [3]; [8]) | transgenic luciferase activity (hAMSC donor 1 [3]; [9]) | transgenic luciferase activity (hAMSC donor 2 [4]; [9])
C[C@@H](c1ncncc1F)[C@](O)(Cn1cncn1)c1ccc(F)cc1F [Voriconazole] reads 1.23 ± 0.27 | 1.15 ± 0.19 | 1.25 ± 0.084 | 1.22 ± 0.32 | 1.14 ± 0.21 | 1.15 ± 0.12 | – | – | 0.871 ± 0.11 | 1.26 ± 0.16 | 0.867 ± 0.051 | 1.21 ± 0.21 | 1.46 ± 0.1 | 1.14 ± 0.057 | – | – | 0.738 ± 0.18 | –
CC[N+](C)(C)c1cccc(O)c1 [Edrophonium chloride] reads 1.1 ± 0.068 | 1.11 ± 0.14 | 1.14 ± 0.13 | 1.25 ± 0.14 | 1.35 ± 0.047 | 0.901 ± 0.16 | 1.25 ± 0.71 | – | 1.06 ± 0.26 | 1.13 ± 0.26 | 1.03 ± 0.15 | 1.16 ± 0.13 | 1.16 ± 0.077 | 0.927 ± 0.13 | 0.678 ± 0.018 | – | – | –
